The values that follow come from article PMC7819943, “Rice protein-binding microarrays: a tool to detect cis-acting elements near promoter regions in rice”.

By UniProt entry, the sequences of proteins in these tests, tags left out.
UniProt Q0JBA9, entry or part of it: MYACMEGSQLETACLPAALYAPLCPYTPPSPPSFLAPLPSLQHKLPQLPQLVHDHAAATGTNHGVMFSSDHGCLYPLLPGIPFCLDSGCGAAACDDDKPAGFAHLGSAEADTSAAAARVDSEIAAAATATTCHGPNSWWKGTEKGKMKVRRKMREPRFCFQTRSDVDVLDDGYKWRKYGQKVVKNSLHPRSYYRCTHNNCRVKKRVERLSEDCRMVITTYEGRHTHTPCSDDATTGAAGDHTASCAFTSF

The list shows a part of the results.

The assay has as its target OsWRKY34 (Oryza sativa, UniProt Q0JBA9 1-250). Nature of the assay: protein-binding microarray (RPBM); PBS, 2% BSA, 51.3 ng/ul salmon testes DNA, 50 uM zinc acetate, 200 nM TF, 25 C, 1 h; high values mean tight binding. The following applies: protein: recombinant; tags: N-terminal polyhistidine and DsRed monomer fusion (pET32a); label: CyDye5-dUTP incorporated in the synthesized complementary strand; 3' TTTTT single-stranded linker to array surface; dsDNA, one strand shown. An outline of the steps: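 The binding signal is fluorescence intensity per feature, in arbitrary units, read on an Axon 4000B scanner. Polyhistidine- and DsRed-tagged transcription factors (N-terminal fusions) from E. coli BL21-CodonPlus were purified on Ni–NTA and applied at 200 nM for 1 h at 25 °C to a double-stranded, BSA-blocked custom Agilent array in buffer with 50 µM zinc acetate.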
In the case of “CAGCCAACATTGATATGTTGTTTAGTCCATGTAGTCCCAACGGAGTCACCTAGTGCAG”, the binding signal was 9120 fluorescence intensity (a.u.).
As for “TGTTTATTATCCTCTCTTGTTCCTCTTTTCTCTCTCCAATCGGAGTCACCTAGTGCAG”, the binding signal was 11100 fluorescence intensity (a.u.).
As for “TTTTAACTTTTTCGTCACATCGTTCTAATTTCAACTAAACCGGAGTCACCTAGTGCAG”, the binding signal was 8080 fluorescence intensity (a.u.).
Turning to “TTTCTGCACTTCTTTTCTTTTGGCACATTCTCATCGTATTCGGAGTCACCTAGTGCAG”, the binding signal is 8610 fluorescence intensity (a.u.).
Turning to “AGTAGTTCAAGTTATATAAGGTATTTCCTCCGTTTCACAACGGAGTCACCTAGTGCAG”, the binding signal was 9010 fluorescence intensity (a.u.).
In the case of “CCATCATGTCGTCCTCGAGCCCCGCGCGCCATCATATCGTCGGAGTCACCTAGTGCAG”, the binding signal was 9680 fluorescence intensity (a.u.).
Consider “TTCACTCATCACTTATCACTCATTCTTTCATTCCTCACTCCGGAGTCACCTAGTGCAG”, for which the binding signal was 9900 fluorescence intensity (a.u.).
For “GGATTGGGGAGTGATTCGGTTTGTTCTTGATTTTGATTTTCGGAGTCACCTAGTGCAG” the value was 15700 fluorescence intensity (a.u.); for “AATGGAAAAGGGAGGGTGTTCAGCAGGCAATGGGAGTTTACGGAGTCACCTAGTGCAG”, 10600 fluorescence intensity (a.u.).
With “CTCCTCGTCGTCATCGACATCGTATCACTCACTGCTCACTCGGAGTCACCTAGTGCAG”, the binding signal is 9850 fluorescence intensity (a.u.).
On to “AGGTGACGACTCTCCTTTTCCGGCTTCTTCTCTTCTTTCCCGGAGTCACCTAGTGCAG”, for which the binding signal is 16200 fluorescence intensity (a.u.).
As for “AGCCGTCCGATCGTCCGCCACGTCATCGATCCGCGTGACTCGGAGTCACCTAGTGCAG”, the binding signal was 9920 fluorescence intensity (a.u.).
For “TGCTATACTGCCGAGGGACCTCGTTTGTACGGTTTTGTAACGGAGTCACCTAGTGCAG”, the binding signal is 8760 fluorescence intensity (a.u.).
Turning to “GCAACCACCAGCTGACAGGGCGTTTTCTCACGTCGCATTTCGGAGTCACCTAGTGCAG”, the binding signal was 9280 fluorescence intensity (a.u.).
On to “AACGCGGCCATCGCTTTTGCTGTACTTTGCCTTCCGCTTTCGGAGTCACCTAGTGCAG”, for which the binding signal is 11000 fluorescence intensity (a.u.).
Turning to “TTCCTTGGCCATCTCTGCCTTTTCCTTCCTACTTTTCTCACGGAGTCACCTAGTGCAG”, the binding signal was 8800 fluorescence intensity (a.u.).
Turning to “CATAAAGAGAACTCTGCATATTCCTGTTTTCTCTTAACCTCGGAGTCACCTAGTGCAG”, the binding signal was 8680 fluorescence intensity (a.u.).
With “AGGTCAGTTCTTTAGTTCAGGTGTTTCTGGTATTATTTTCCGGAGTCACCTAGTGCAG”, the binding signal was 8060 fluorescence intensity (a.u.).
For “CTCCCCGCGAACCCACTCCCAGCCGCCGCCGCCGCCACCTCGGAGTCACCTAGTGCAG”, the binding signal was 8640 fluorescence intensity (a.u.).
For “GTGGGTGGTTGGGCCTGTTGCAACGTGGTATAGCGTTGGACGGAGTCACCTAGTGCAG”, the binding signal is 12400 fluorescence intensity (a.u.).
Consider “GTCACTGCGTGTGTTAGGGAAGGGGAGGGAGAGCGAGAGGCGGAGTCACCTAGTGCAG”, for which the binding signal is 8700 fluorescence intensity (a.u.).
For the sequence “TTAAGTCCCTACACATTGCAAATTGCAGTACTTTCTTTAACGGAGTCACCTAGTGCAG”, the binding signal was 8900 fluorescence intensity (a.u.).
With “TTTCCATTTCCTACCCCTTTAATTCCTACATTTTTCCTATCGGAGTCACCTAGTGCAG”, the binding signal is 8130 fluorescence intensity (a.u.).
Turning to “CTATTACATGCCGCACAAGCCCACAGCCCACTCACTCCTCCGGAGTCACCTAGTGCAG”, the binding signal was 8040 fluorescence intensity (a.u.).
For “TAATGGACCACTCTGTTTTCTGTGTTCAGGAGATTTATTTCGGAGTCACCTAGTGCAG” the value was 8180 fluorescence intensity (a.u.); for “TCCTTCTATCTTGCTATCTATTCTCAATTGAACCTCTTTTCGGAGTCACCTAGTGCAG”, 8100 fluorescence intensity (a.u.).
For “TCTTCAATCTGCTGGATTCAGACCCTTGTCTCCTGTGTTCCGGAGTCACCTAGTGCAG” the value was 8030 fluorescence intensity (a.u.); for “CTTTTCTGTGGTTGTTCTCTCTAGGTTTGGTGACCGTCTGCGGAGTCACCTAGTGCAG”, 8220 fluorescence intensity (a.u.); for “CCGTCCATTTCACGACATCAACTGATCGATTCAACCCAAACGGAGTCACCTAGTGCAG”, 11200 fluorescence intensity (a.u.).
Regarding “ACGCCGGCTTCCATCTCCGCCGCTCGCGCCTCTCGCGCCGCGGAGTCACCTAGTGCAG”, the binding signal was 8840 fluorescence intensity (a.u.).
For “TCTATTTTCCTTTTTTTTTTGTCTAGTGTGTTGGCTTTTACGGAGTCACCTAGTGCAG”, the binding signal is 12200 fluorescence intensity (a.u.).
With “TTTCAGGTTTTGCATTTCACACCTCTGTCGTCATACTTGACGGAGTCACCTAGTGCAG”, the binding signal was 17800 fluorescence intensity (a.u.).
In the case of “CGACAATATTCGATTCCGTTTTTATATCTGAGTTTTCAATCGGAGTCACCTAGTGCAG”, the binding signal is 9460 fluorescence intensity (a.u.).
Take “ACGGAGGGAGGGGCTGTTCAGATTGATGTCATTTTCAACCCGGAGTCACCTAGTGCAG”: the binding signal is 9140 fluorescence intensity (a.u.).
In the case of “TTTTTTGTGAGATTTGTCGCACCGAGTTTCGCTATTTTCACGGAGTCACCTAGTGCAG”, the binding signal was 10100 fluorescence intensity (a.u.).
On to “GTTCTCGGTGTGTACTTGGTCCATCAGTCTCTTCAGATCTCGGAGTCACCTAGTGCAG”, for which the binding signal was 8120 fluorescence intensity (a.u.).
In the case of “TTTCTTGCTAGCTTTAAGGTGTGGCCGTGTCATTGTCACTCGGAGTCACCTAGTGCAG”, the binding signal is 9170 fluorescence intensity (a.u.).
For “ATTCCAAGCTCCATTGCATCTCTCACACGCTGTCCCCAGTCGGAGTCACCTAGTGCAG”, the binding signal was 12700 fluorescence intensity (a.u.).
In the case of “ATCCCCAACAGTTTCGTTTTTTATTTGCCCATTTTGTTTGCGGAGTCACCTAGTGCAG”, the binding signal is 13700 fluorescence intensity (a.u.).
In the case of “CCTCACTCGCTAACCGTTACTGCGCGCCGCTGCCGCCCCGCGGAGTCACCTAGTGCAG”, the binding signal was 9350 fluorescence intensity (a.u.).
For the sequence “GCTCTCATGGCCTCACACACCGCGCCATTGCCATCGTTTCCGGAGTCACCTAGTGCAG”, the binding signal was 17000 fluorescence intensity (a.u.).
In the case of “TCGTTGTAGTTTTACTTGTCTTATCAATTTTGCATGAATTCGGAGTCACCTAGTGCAG”, the binding signal is 9050 fluorescence intensity (a.u.).
